The list shows a part of the results.
Experiments:
Test in all cases: protein microarray (ProtoArray v5.0), streptavidin-Alexa Fluor 647
Conditions in all cases: 3'-biotin; 20 mM Tris (pH 7.5), 5 mM MgCl2, 100 mM KCl, 0.1% Tween-20, A/T-rich and random oligonucleotide blockers; temperature not stated; high values mean tight binding
[1] = tested on: PSG3 (human)
[2] = tested on: PSIP1 (human)
[3] = tested on: PSMA1 (human)
[4] = tested on: PSMA4 (human)
[5] = tested on: PSMA5 (human)
[6] = tested on: PSMB4 (human)
[7] = tested on: PSMB8 (human)
[8] = tested on: PSMC4 (human)
[9] = tested on: PSMD10 (human)
[10] = tested on: PSMD11 (human)
[11] = tested on: PSMD5 (human)
[12] = tested on: PSME1 (human)
[13] = tested on: PSPH (human)
[14] = tested on: PTCHD1 (human)
[15] = tested on: PTGES2 (human)
[16] = tested on: PTK2B (human)
[17] = tested on: PTK6 (human)
[18] = tested on: PTMS (human)
[19] = tested on: PTPN1 (human)
[20] = tested on: PTPN12 (human)

**Q.** “GGGAGGCTGAGGCAGG [G4-1 biotinylated (PQS2)]” was tested. Which binding signal [1] did it give?
**A.** Its binding signal is -0.31 z-score.

**Q.** And the binding signal [2]?
**A.** The binding signal was -0.328 z-score.

**Q.** And the binding signal [3]?
**A.** The binding signal was -0.319 z-score.

**Q.** What about the binding signal [4] of the same sequence?
**A.** The binding signal was -0.338 z-score.

**Q.** What about the binding signal [5] of the same sequence?
**A.** The binding signal was -0.335 z-score.

**Q.** And the binding signal [6]?
**A.** The binding signal was -0.256 z-score.

**Q.** And the binding signal [7]?
**A.** The binding signal was -0.321 z-score.

**Q.** What about the binding signal [8] of the same sequence?
**A.** Its binding signal is -0.294 z-score.

**Q.** And the binding signal [9]?
**A.** The binding signal was -0.34 z-score.

**Q.** And the binding signal [10]?
**A.** Its binding signal is -0.354 z-score.

**Q.** What about the binding signal [11] of the same sequence?
**A.** Its binding signal is -0.362 z-score.

**Q.** What about the binding signal [12] of the same sequence?
**A.** Its binding signal is -0.359 z-score.

**Q.** What about the binding signal [13] of the same sequence?
**A.** Its binding signal is -0.321 z-score.

**Q.** And the binding signal [14]?
**A.** Its binding signal is -0.326 z-score.

**Q.** What about the binding signal [15] of the same sequence?
**A.** The binding signal was -0.353 z-score.

**Q.** And the binding signal [16]?
**A.** Its binding signal is -0.355 z-score.

**Q.** And the binding signal [17]?
**A.** Its binding signal is -0.279 z-score.

**Q.** And the binding signal [18]?
**A.** Its binding signal is -0.33 z-score.

**Q.** And the binding signal [19]?
**A.** Its binding signal is -0.351 z-score.

**Q.** What about the binding signal [20] of the same sequence?
**A.** Its binding signal is -0.319 z-score.

From article PMC5996148
